From publication doi:10.1101/2025.06.13.659446

Sequences of proteins named here, by UniProt entry; tags and fusion partners are left off.
UniProt O15169: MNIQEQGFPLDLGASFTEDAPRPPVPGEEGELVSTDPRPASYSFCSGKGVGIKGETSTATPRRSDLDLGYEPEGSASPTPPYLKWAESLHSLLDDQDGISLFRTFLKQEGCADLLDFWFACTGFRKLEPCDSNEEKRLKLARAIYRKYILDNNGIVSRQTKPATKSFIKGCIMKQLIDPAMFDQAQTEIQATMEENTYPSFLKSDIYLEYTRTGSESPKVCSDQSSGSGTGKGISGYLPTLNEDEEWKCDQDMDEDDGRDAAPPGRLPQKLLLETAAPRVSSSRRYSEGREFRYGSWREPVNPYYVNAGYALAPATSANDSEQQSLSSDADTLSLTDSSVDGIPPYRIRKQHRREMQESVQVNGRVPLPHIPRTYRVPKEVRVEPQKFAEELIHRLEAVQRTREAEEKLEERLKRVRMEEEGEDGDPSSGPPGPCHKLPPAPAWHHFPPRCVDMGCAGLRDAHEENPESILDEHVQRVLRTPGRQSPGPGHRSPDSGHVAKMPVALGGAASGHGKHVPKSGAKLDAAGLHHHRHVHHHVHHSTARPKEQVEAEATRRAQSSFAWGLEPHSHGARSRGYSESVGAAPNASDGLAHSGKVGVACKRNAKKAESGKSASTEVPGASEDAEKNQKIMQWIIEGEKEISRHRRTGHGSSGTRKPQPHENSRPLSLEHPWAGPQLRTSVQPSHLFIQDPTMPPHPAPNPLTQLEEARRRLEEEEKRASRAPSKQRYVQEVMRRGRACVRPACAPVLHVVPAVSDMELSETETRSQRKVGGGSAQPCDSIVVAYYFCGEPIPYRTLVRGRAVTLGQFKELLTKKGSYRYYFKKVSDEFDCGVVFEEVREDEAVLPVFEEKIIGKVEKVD
UniProt P35222: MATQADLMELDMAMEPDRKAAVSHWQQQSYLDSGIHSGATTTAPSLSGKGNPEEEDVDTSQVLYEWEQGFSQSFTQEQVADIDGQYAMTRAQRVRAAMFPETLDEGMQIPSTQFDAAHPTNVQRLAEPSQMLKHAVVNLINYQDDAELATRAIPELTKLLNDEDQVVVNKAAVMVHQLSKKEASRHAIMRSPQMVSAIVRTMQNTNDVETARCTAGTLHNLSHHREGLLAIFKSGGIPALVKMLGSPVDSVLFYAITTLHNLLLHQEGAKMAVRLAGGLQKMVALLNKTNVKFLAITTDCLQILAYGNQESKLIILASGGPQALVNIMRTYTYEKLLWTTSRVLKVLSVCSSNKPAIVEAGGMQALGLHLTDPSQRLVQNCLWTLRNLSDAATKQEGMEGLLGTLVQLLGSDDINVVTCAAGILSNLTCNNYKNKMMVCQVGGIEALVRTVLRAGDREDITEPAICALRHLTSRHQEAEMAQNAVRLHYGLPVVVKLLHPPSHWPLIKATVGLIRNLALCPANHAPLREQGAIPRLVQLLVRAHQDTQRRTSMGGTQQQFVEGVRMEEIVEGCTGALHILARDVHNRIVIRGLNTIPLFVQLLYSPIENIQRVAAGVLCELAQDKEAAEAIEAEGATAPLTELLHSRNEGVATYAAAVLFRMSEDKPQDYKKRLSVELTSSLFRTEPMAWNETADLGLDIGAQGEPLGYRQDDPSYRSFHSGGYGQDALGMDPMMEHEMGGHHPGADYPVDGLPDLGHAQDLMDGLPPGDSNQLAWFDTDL

Biological target: AXIN1 (human (endogenous in HCT116)) (UniProt O15169)
Test: affinity purification with mass spectrometry

binding: binds
Substance: beta-catenin (from UniProt P35222 1-781)

These are yes or no findings as the source states them, for the method shown. Binding seen in cells or lysates may run through a third protein. A yes stands for co-enrichment or nearness to the bait. Other partners may have been found.
